PubChem BioAssay AID504847 (National Center for Advancing Translational Sciences (NCATS), 2011)
The campaign covered roughly 400,000 compounds. About 3,700 (0.93%) were called active. The inconclusive results got no clear call from the source; some entries with a clear call stand among them for comparison. The call rests on the fitted dose curve; in most records, active means well fitted inhibition curve with a large enough effect; inconclusive means small, poorly fitted or top-dose-only effect, or another doubt; inactive means no such curve, though single readings can be large or run the other way. Potencies of inconclusive entries are doubtful fits and often do not repeat.

Chains of the proteins cited; added tags and fusions are not shown. Lines headed by an entry give the natural chain unless they say otherwise; changes in a name come on top.
UniProt P11473: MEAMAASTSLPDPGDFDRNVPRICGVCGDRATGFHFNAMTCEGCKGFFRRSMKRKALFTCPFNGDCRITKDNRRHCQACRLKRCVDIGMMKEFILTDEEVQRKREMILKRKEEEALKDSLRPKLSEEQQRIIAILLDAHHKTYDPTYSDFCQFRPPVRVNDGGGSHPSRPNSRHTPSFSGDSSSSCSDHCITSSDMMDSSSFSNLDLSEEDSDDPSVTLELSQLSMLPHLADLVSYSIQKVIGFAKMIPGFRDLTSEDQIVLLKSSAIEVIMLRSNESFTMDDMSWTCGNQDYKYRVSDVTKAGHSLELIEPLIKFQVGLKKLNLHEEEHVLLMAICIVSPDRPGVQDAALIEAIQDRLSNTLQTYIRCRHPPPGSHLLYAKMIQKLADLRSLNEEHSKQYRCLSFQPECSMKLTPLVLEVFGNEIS

What follows are molecules tested against Vitamin D3 receptor (Homo sapiens) (UniProt P11473) (assay: Inhibitors of the vitamin D receptor (VDR): qHTS). Details: VDR-SRC2-3 peptide fluorescence polarization, 2 h; max response, negative = inhibition: stronger effect = lower value.
How it was run: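 The screen uses fluorescence polarization to detect compounds that interfere with recruitment of the SRC2-3 coactivator peptide to VDR; plates are read after 2 h at room temperature.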
On the % scale 0 is the no-effect control and ±100 the full control effect; potency means the concentration at half of the fitted maximal effect.

Max response, negative = inhibition, inactive:
CCCCCCn1cnc2c(oc3nc4c(cc32)CCCC4)c1=O 38.8%
CCOc1cc2[nH]c(=O)n(CCCCC(=O)N3CCN(c4ccccc4OC)CC3)c(=O)c2cc1OCC 3.34%
Cc1cn2c(=O)cc(COC(=O)c3ccc(NC(=O)c4ccccc4C)cc3)nc2s1 -3.36%
CCCN(C(=O)c1cc(S(=O)(=O)N2CCc3ccccc32)cn1C)c1ccc(OCC)cc1 9.11%
Cc1ccc(NC(=O)Cn2c(=O)n(-c3ccc(C)cc3)c(=O)c3c2cnn3C)cc1 -5.87%
CCOP(=O)(OCC)C(NC(=O)c1cccs1)c1ccccc1 (stereo not given) 0.43%
COc1ccc(C)cc1NC(=O)CN1CCN(S(=O)(=O)c2ccc3ccccc3c2)CC1 -19.1%
NC(=O)c1c(N)sc2c1CCCC2 -28.1%
CN1C(=O)c2ccc(NC(=O)c3c(C(=O)O)cccc3[N+](=O)[O-])cc2C1=O 4.89%
c1ccc(-c2nnc3sc(Cc4cccs4)nn23)cc1 -8.4%
COc1ccc(N2CCN(C(=O)CCCOc3cc(=O)n(C)c4ccccc34)CC2)cc1 -1.59%
Cc1ccc(OCC(=O)Nc2cccc(-c3nc4ccccc4o3)c2C)cc1C -4.02%
CCOC(=O)c1sc(NC(=S)NC(=O)CC(C)C)cc1C -30%
CCN1CCCc2cc(CN(CCN3CCOCC3)C(=S)Nc3ccc(C)cc3)ccc21 2.58%
Nc1nonc1-n1nnc(C(=O)N/N=C/c2ccc(OCc3ccccc3)cc2)c1CN1CCCCC1 -9.26%
Cc1cc(C)n(-c2nc3ccccc3nc2Nc2ccc(Cl)c(C(=O)OC(C)C)c2)n1 -3.64%
CCn1cc(/C=N/NC(=O)c2ccc(C#N)cc2F)c2ccccc21 -0.609%
COc1cccc(C(=O)OCCN2CCOCC2)c1 -10.4%
Cn1nccc1C(=O)NCCN1C(=O)OC(C)(C)C1(C)O (stereo not given) -17%

Potency, active:
CN(C)S(=O)(=O)c1ccc2nnn(O)c2c1 79.4 µM
N#CC1=C2SCN(Cc3ccccc3)CN2C(=O)CC1c1ccc2c(c1)OCO2 (stereo not given) 50.1 µM
CN(C)CC(CCC(CN(C)C)C(=O)c1ccccc1)C(=O)c1ccccc1 (stereo not given) 44.7 µM
O=C(c1ccccc1)c1ccc2nc(-c3ccco3)c(-c3ccco3)nc2c1 44.7 µM
Cc1[nH]c2ccccc2c1C1=CC(=O)C=CC1=O 28.2 µM
COc1cccc(NCCC(=O)c2cccc([N+](=O)[O-])c2)c1 79.4 µM

Quoted at random: three compounds from above.
Potency, active:
CN(C)S(=O)(=O)c1ccc2nnn(O)c2c1 79.4 µM
COc1cccc(NCCC(=O)c2cccc([N+](=O)[O-])c2)c1 79.4 µM
N#CC1=C2SCN(Cc3ccccc3)CN2C(=O)CC1c1ccc2c(c1)OCO2 (stereo not given) 50.1 µM

Following part:

Potency, inconclusive:
Cc1ccc(S(=O)(=O)N2[C@@H](c3cccc(Cl)c3)C(C(=O)O)=CC[C@H]2c2ccc3c(c2)OCO3)cc1 100 µM [inhibitor, partial curve, poor fit]
N#Cc1cccc(CS(=O)(=O)c2nc3ccccc3s2)c1 70.8 µM [inhibitor, single point]
COc1ccc2ccccc2c1C1CC(=O)N2CN(Cc3ccco3)CSC2=C1C#N (stereo not given) 56.2 µM [inhibitor, partial curve, poor fit]
CC1(C)CC(=O)C2=C(C1)NC(=S)C(C#N)C21CCCCC1 (stereo not given) 70.8 µM [inhibitor, partial curve, poor fit]
Cc1ccc(-n2nc(C)c3c(C)c(CCC(=O)NC(C)c4ccccc4)c(C)nc32)cc1 (stereo not given) 100 µM [inhibitor, single point]
Cc1ccc(C)c(S(=O)(=O)Nc2ccc(O)c3ccccc23)c1 17.8 µM [inhibitor, partial curve, poor fit]
CC(C)c1nnc(NC(=O)Cc2cccs2)s1 44.7 µM [inhibitor, partial curve, poor fit]
Cc1nnc(NC(=O)CN2CCN(Cc3ccccc3Cl)CC2)s1 1.41 µM [inhibitor, full curve, poor fit]
CC1=NN(c2ccc([N+](=O)[O-])cc2)C(=O)/C1=C\N(C)C 89.1 µM [inhibitor, single point]
O=C(CSc1ccccc1C(=O)NCCCN1CCCC1=O)NCc1ccco1 100 µM [inhibitor, partial curve, poor fit]
O=C(Nc1cccc(F)c1)N1CCCC2(CCNCC2)C1 50.1 µM [inhibitor, partial curve, poor fit]
CN(C)S(=O)(=O)c1cccc(C(=O)OCC(=O)Nc2ccccc2OC(F)F)c1 25.1 µM [inhibitor, full curve, poor fit]
CCOc1ccc(-n2c(C)cc(/C=C3/C(=N)N4C(=NC3=O)SN=C4S(C)(=O)=O)c2C)cc1 15.8 µM [inhibitor, partial curve, poor fit]
COc1ccc(OC)c(CN2CCC(C(=O)N3CCOCC3)CC2)c1 44.7 µM [inhibitor, partial curve, poor fit]
CCOC(=O)C[C@H]1c2cc(C(F)(F)F)ccc2S(=O)(=O)N1Cc1ccccc1 8.91 µM [inhibitor, full curve, poor fit]
CN1C(=O)N(C)C2(c3ccccc3)N(C(C)(C)C)C(=O)NC12c1ccccc1 (stereo not given) 56.2 µM [inhibitor, partial curve, poor fit]
O=C(O)CN(CC(=O)O)Cc1cc2c(-c3ccccc3C(=O)O)c3cc(CN(CC(=O)O)CC(=O)O)c(=O)cc-3oc2cc1O 44.7 µM [inhibitor, partial curve]
CCOC(=O)CNC(=O)CSc1nc(-c2ccccc2)ns1 89.1 µM [inhibitor, single point]
COc1ccc(-c2cc(C(F)F)n3ncc(C(=O)n4ccnc4C)c3n2)cc1 89.1 µM [inhibitor, partial curve, poor fit]
O=[N+]([O-])c1ccccc1CNCCCCCO 79.4 µM [inhibitor, partial curve, poor fit]
O=c1c(-c2ccccc2)c(-c2ccccc2)oc2cc(O)cc(O)c12 89.1 µM [inhibitor, single point]
Cc1ccc(O)c(C(=O)/C=C/c2ccc3c(c2)OCCCO3)c1 7.94 µM [inhibitor, full curve, poor fit]
O=C(c1ccco1)n1c(=S)nc2ccccn21 89.1 µM [inhibitor, single point]
Cc1cc(Cl)ccc1-n1c(CCC(=O)O)ccc1-c1cccs1 39.8 µM [inhibitor, partial curve, poor fit]
COc1cccc(-c2cc(CC3(O)CCN(CCCc4ccccc4)CC3)on2)c1 17.8 µM [inhibitor, partial curve, poor fit]
CCOc1ccccc1-c1ccc(C(=O)O)o1 100 µM [inhibitor, partial curve]
CN(CC(=O)Nc1ccc(F)cc1)C(=O)CSc1nnc(Cc2ccccc2)o1 79.4 µM [inhibitor, single point]
CN(C)c1ccc(NC(=O)COC(=O)CNC(=O)c2cccs2)cc1 89.1 µM [inhibitor, partial curve, poor fit]
Nc1nc(C(=O)N2CCOCC2)nn1S(=O)(=O)c1ccc(Cl)cc1 79.4 µM [inhibitor, partial curve, poor fit]
CCCCOc1c(Br)cc(/C=C2\N=C(C)OC2=O)cc1OCC 20 µM [inhibitor, full curve]
O=[N+]([O-])c1ccc(C2=Nn3c(Cn4nnc5ccccc54)nnc3SC2)cc1 56.2 µM [inhibitor, partial curve, poor fit]
Cc1ccc(S(=O)(=O)N2[C@@H](c3ccccc3)C(C(=O)O)=CC[C@H]2c2ccc(Cl)c(Cl)c2)cc1 56.2 µM [inhibitor, partial curve, poor fit]
CCc1ccc(NC(=S)Nc2cc(C(=O)O)ccc2N2CC3CC(C2)c2cccc(=O)n2C3)cc1 (stereo not given) 79.4 µM [inhibitor, single point]
O=C(Nc1ccccc1)c1nnsc1S(=O)c1ccc(Cl)cc1 (stereo not given) 12.6 µM [inhibitor, partial curve, poor fit]
Cc1c(C(=O)NCCCN2CCCCC2)oc2ccc3c(c12)C(O)CC1(CCCCC1)O3 (stereo not given) 89.1 µM [inhibitor, single point]
CCN(CC)Cc1cc(Nc2c3ccccc3nc3c4ccccc4n(C)c23)cc(CN(CC)CC)c1O 89.1 µM [inhibitor, single point]
CC(=O)c1cccc(NC(=O)C(=O)c2cn(CC(=O)N3CCCCC3)c3ccccc23)c1 79.4 µM [inhibitor, single point]
CC(C)C(=O)NC(=S)Nc1sc2c(c1C(N)=O)CCCC2 89.1 µM [inhibitor, single point]
Cc1ccc(S(=O)(=O)c2nc(S(=O)(=O)c3ccccc3)sc2N2CCN(C)CC2)cc1 89.1 µM [inhibitor, single point]
CCOC(=O)c1cc2c(=O)c3cc(C)ccc3oc2nc1C 31.6 µM [inhibitor, single point]
